# The whole screen tested about 390,000 compounds, of which about 610 (0.16%) were called active. Inconclusive means that the source gave no clear call. Such entries were picked first, then a sample of the others. Calls come from the whole dose curve; as a rule, active = well fitted inhibition curve with a large enough effect; inconclusive = small, poorly fitted or top-dose-only effect, or effect the other way, or another doubt; inactive = no such curve, though single readings can be large or run the other way. A potency beside an inconclusive call is a rough fit, not a confirmed value.
# Assay: Nrf2 qHTS screen for inhibitors: counterscreen for cytotoxicity
# Conditions: A549 ARE-Fluc cells, CellTiter-Fluor viability, 18-24 h; activity change, negative = cytotoxicity: at 46 µM (top of the series)
# Procedure, shortened: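 A549 ARE-Fluc cells in 5% FBS OPTI-MEM, 5000 cells/well, rested 2 h then exposed to compounds in concentration-response for 18-24 h at 37 °C. Viability by CellTiter-Fluor fluorescence (Ex 405/Em 525) after 30 min; luciferase luminescence (BugLite, 15 min, RT) read afterwards.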
# % is set by controls: 0 for no effect and ±100 for the full control effect; potency is the fitted concentration of half-maximal effect.
Compound,Potency,"activity change, negative = cytotoxicity"
CCOc1ccc(Nc2cc(C)nc3c(C)cccc23)cc1,"inconclusive: 16.4 µM [falling, single point]",–
Cc1ccc(Nc2nc(CSc3nnc(-c4ccncc4)n3-c3ccccc3C)cs2)cc1,"inconclusive: 29.1 µM [falling, single point]",–
COc1ccccc1CNC(=O)c1cnc(N(C)C)nc1,–,inactive: 2.25%
CCCSc1oc(-c2ccco2)nc1S(=O)(=O)c1ccc(Cl)cc1,"inconclusive: 14.6 µM [activator, partial curve, poor fit]",–
Cc1cccc(/C=C/c2nc3ccccc3c(=O)n2Cc2ccccc2)c1,"inconclusive: 29.1 µM [falling, single point]",–
CCOC(=O)[C@H]1[C@H]2COc3ccc(Br)cc3[C@H]2N2C(=O)CN(Cc3ccc(Cl)cc3)C(=O)[C@@]12C,–,inactive: -11.6%
CCCc1sc(N/N=C/c2ccccn2)nc1-c1ccc(F)cc1,"inconclusive: 20.6 µM [falling, partial curve, poor fit]",–
COc1nc(Nc2nc3ccccc3c(=O)[nH]2)nc2ccc(C)cc12,"inconclusive: 4.11 µM [falling, partial curve, poor fit]",–
CC(C)(O)C#Cc1ccc(C(=O)N2CCN(c3ccc([N+](=O)[O-])cc3)CC2)cc1,"inconclusive: 25.9 µM [falling, partial curve, poor fit]",–
Cc1cc(Nc2cccc(Cl)c2)nc2ccc(NC(=O)Cc3ccc(Cl)cc3)cc12,"inconclusive: 32.6 µM [falling, partial curve, poor fit]",–
CNC(=O)/C(C#N)=C/c1c(N(Cc2ccccc2)Cc2ccccc2)nc2ccccn2c1=O,active: 23.1 µM,–
C/C(=N\NC(=O)c1ccccc1Cl)c1ccccn1,"inconclusive: 13 µM [falling, partial curve]",–
CCC(C)(C)C1CCc2nc3ccccc3c(C(=O)OC(C)C(=O)Nc3c(C)n(C)n(-c4ccccc4)c3=O)c2C1 (centres undefined),–,inactive: -19.9%
CCOC(=O)COc1ccc(/C=C/[N+](=O)[O-])c(OCC(=O)OCC)c1,"inconclusive: 23.1 µM [falling, single point]",–
COc1ccccc1Nc1c2c(nc3ccc(NC(=O)c4ccc(OC)c(OC)c4)cc13)CCCC2,"inconclusive: 29.1 µM [falling, single point]",–
FC(F)(F)c1cc(-c2ccccc2)nc2cc(-c3ccc(Br)cc3)nn12,–,inactive: -3.82%
CC(=O)OC(C)(C)/C=C/C(=O)[C@](C)(O)C1[C@H](O)C[C@@]2(C)C3CC=C4C(C=C(O[C@@H]5O[C@H](CO)[C@@H](O)[C@H](O)[C@H]5O)C(=O)C4(C)C)[C@]3(C)C(=O)C[C@]12C (some centres undefined),–,inactive: -15.9%
O=C(Nc1nnc(CSCc2ccccc2F)s1)c1cccc([N+](=O)[O-])c1,"inconclusive: 18.4 µM [falling, partial curve, poor fit]",–
S=c1[nH]c2ccc(Cc3ccc4[nH]c(=S)[nH]c4c3)cc2[nH]1,–,inactive: -0.631%
Cc1ccc(-c2nnc(SCC(=O)N/N=C/c3ccc(C)s3)n2-c2ccc(C)cc2)cc1,"inconclusive: 29.1 µM [falling, single point]",–
Cc1ccc(S(=O)(=O)Cc2cc(F)c([N+](=O)[O-])cc2[N+](=O)[O-])cc1,"inconclusive: 29.1 µM [falling, partial curve, poor fit]",–
CNc1ccccc1C(=O)OC(C)C(=O)Nc1ccc(Cl)cn1 (centres undefined),"inconclusive: 29.1 µM [falling, partial curve, poor fit]",–

# Grouped by structure, the entries above with bromine
Compound,Potency,"activity change, negative = cytotoxicity"
CCOC(=O)[C@H]1[C@H]2COc3ccc(Br)cc3[C@H]2N2C(=O)CN(Cc3ccc(Cl)cc3)C(=O)[C@@]12C,–,inactive: -11.6%
FC(F)(F)c1cc(-c2ccccc2)nc2cc(-c3ccc(Br)cc3)nn12,–,inactive: -3.82%

# Further structures

Compound,Potency,"activity change, negative = cytotoxicity"
Cc1cc(S(=O)(=O)Nc2ccc(-c3ccc(N4CCCCC4)nn3)cc2)c(C)cc1Cl,"inconclusive: 20.6 µM [falling, single point]",–
O=C(CSc1nnc(CNC(=O)c2cccs2)o1)Nc1ccc(F)cc1F,–,inactive: 3.18%
COc1cc(/C=C/C(=O)c2ccc([N+](=O)[O-])o2)ccc1O,"inconclusive: 20.6 µM [falling, partial curve, poor fit]",–
O=C(/C=C/c1ccc(Cl)cc1)Nc1ccc(CN2CCOCC2)cc1,"inconclusive: 29.1 µM [falling, single point]",–
O=C(COc1ccccc1)Nc1cc(Cl)ccc1Cl,"inconclusive: 32.6 µM [activator, single point]",–
OC(COc1ccccc1)CN1CCC(Cc2ccccc2)CC1 (centres undefined),"inconclusive: 18.4 µM [falling, partial curve, poor fit]",–
O=C1C(Nc2ccc(O)cc2)=C/C(=N/S(=O)(=O)c2cccs2)c2ccccc21,"inconclusive: 23.1 µM [falling, single point]",–
Cc1nnc(SCc2ccc(Cl)cc2)c2cc3occc3n12,"inconclusive: 4.61 µM [activator, partial curve, poor fit]",–
CCC(C(=O)NCc1ccco1)N(C(=O)CNS(=O)(=O)c1ccc(C)cc1)c1ccccc1F (centres undefined),–,inactive: -0.511%
CCOC(=O)C1=C(CS(=O)(=O)c2ccc(C)cc2)NC(=O)NC1c1ccc(C(C)C)cc1 (centres undefined),"inconclusive: 32.6 µM [falling, partial curve, poor fit]",–
CN(C(=O)c1ccc2c(c1)N(Cc1cccc(Cl)c1)C(=O)c1ccccc1S2=O)C1CCCCC1 (centres undefined),"inconclusive: 16.4 µM [falling, single point]",–
COc1ccccc1/C=C/C(=O)NC(=S)Nc1ccc(S(=O)(=O)N(C)c2ccccc2)cc1,"inconclusive: 23.1 µM [activator, partial curve, poor fit]",–
CC1CCCCC1NC(=S)NC(=O)c1ccccc1Br (centres undefined),"inconclusive: 23.1 µM [activator, partial curve, poor fit]",–
O=C(CN1C2=NCCN2c2ccccc21)C12CC3CC(CC(C3)C1)C2,"inconclusive: 32.6 µM [falling, partial curve, poor fit]",–
CCc1nc2ccccc2c(C(=O)OCC(=O)Nc2cccc(S(=O)(=O)N3CCOCC3)c2)c1C,"inconclusive: 14.6 µM [falling, partial curve]",–
Cc1cc(C)c2c(CC(=O)Nc3ccc(Cl)cn3)coc2c1,"inconclusive: 29.1 µM [falling, single point]",–
CC(C)Cn1cnc2c(SCc3ccccc3Cl)nc(N)nc21,–,inactive: 0.112%
N#C/C(=C(/O)c1ccccc1F)c1nc2cc(C(F)(F)F)ccc2s1,"inconclusive: 20.6 µM [falling, partial curve, poor fit]",–
Cc1ccc(Cl)cc1N1CCN(C(=O)c2cccc3c(=O)c(C)c(-c4ccccc4)oc23)CC1,"inconclusive: 25.9 µM [falling, single point]",–
Cc1ccc(C(=O)CC2(O)C(=O)N(CCc3ccccc3)c3ccc(Cl)cc32)cc1 (centres undefined),"inconclusive: 6.51 µM [activator, partial curve, poor fit]",–
CC(C)SCCCCOc1ccc2ccccc2c1,"inconclusive: 16.4 µM [activator, partial curve, poor fit]",–
COCCCNC(=S)NCCCNc1nc2cc3c(cc2cc1C#N)OCO3,"inconclusive: 5.8 µM [activator, single point]",–

Compound,Potency,"activity change, negative = cytotoxicity"
Cc1ccc(CNC(=O)c2cc3c(C)nc4ccccc4c3o2)cc1,–,inactive: -1.79%
Cc1nc2ccccc2n1CC(=O)NN,"inconclusive: 20.6 µM [falling, partial curve, poor fit]",–
O=C(NCc1ccc2c(c1)OCO2)c1cc([N+](=O)[O-])ccc1N1CCCCC1,"inconclusive: 11.6 µM [falling, partial curve, poor fit]",–
Nc1cc(=O)[nH]c(SCC(=O)Nc2cccc(S(=O)(=O)N3CCCCCC3)c2)n1,"inconclusive: 18.4 µM [falling, partial curve, poor fit]",–
O=c1c(Br)ccc(Br)cc1Br,"inconclusive: 20.6 µM [falling, single point]",–
O=C(NCc1ccccn1)c1cccc(NS(=O)(=O)c2cccc(F)c2)c1,–,inactive: 2.25%
CCNC(=O)C(=O)c1c(-c2ccccc2)[nH]c2ccccc12,–,inactive: -15.9%
O=C(CSc1cn[nH]n1)Nc1ccccc1C(=O)O,–,inactive: 2.55%
Cc1noc(/C=C/N(C)C)c1S(=O)(=O)N(C)CC(=O)N1CCc2ccccc21,–,inactive: -2.88%
COc1ccccc1N1CCN(C(=O)c2cccc(S(=O)(=O)Nc3ccccc3F)c2)CC1,–,inactive: 1.73%
COc1ccc(C)cc1S(=O)(=O)N1CCN(c2cccc(Cl)c2)CC1,–,inactive: 0.534%
O=C(COc1ccc(F)cc1)Nc1ccc2nc(SCC(=O)N3CCc4ccccc43)sc2c1,–,inactive: 1.37%
Cc1ccc(CN(C)C(=O)c2cc(S(=O)(=O)N3CCOCC3)ccc2F)o1,–,inactive: -2.42%
Cc1csc(C(C#N)C(=O)c2cc3ccccc3o2)n1 (centres undefined),"inconclusive: 14.6 µM [falling, partial curve, poor fit]",–
O=C(c1cccs1)N1CCc2c([nH]c3ccccc23)C1c1ccc(Cl)cc1 (centres undefined),"inconclusive: 29.1 µM [falling, single point]",–
Clc1ccc(COc2ccccc2CNCc2cccnc2)cc1,"inconclusive: 6.51 µM [falling, single point]",–
O=C(NC(NC(=S)Nc1c(Cl)cccc1Cl)C(Cl)(Cl)Cl)c1cccc([N+](=O)[O-])c1 (centres undefined),"inconclusive: 23.1 µM [falling, single point]",–
COc1ccc(-n2c(COc3ccc(C)cc3)nnc2SCc2ccc(C#N)cc2)cc1,–,inactive: -18.9%
O=C(NC1c2ccccc2Oc2ccccc21)c1ccc([N+](=O)[O-])cc1,"inconclusive: 5.17 µM [activator, full curve, poor fit]",–
Cc1nc(C)n(CC(=O)N2CCCC(C(=O)c3ccc(Cl)cc3C)C2)n1 (centres undefined),"inconclusive: 2.31 µM [activator, single point]",–

# Reference: PubChem BioAssay AID504648 (National Center for Advancing Translational Sciences (NCATS), 2011)
